Experimental data published in publication doi:10.1101/2024.10.07.617058.
Results are given in words; binding and its absence hold for the method and conditions named. In cells and extracts the contact can be indirect. Some binding calls cover weakened binding; strength is not graded here.

Chains of the proteins cited; added tags and fusions are not shown. Lines headed by an entry give the natural chain unless they say otherwise; changes in a name come on top.
UniProt Q96A65: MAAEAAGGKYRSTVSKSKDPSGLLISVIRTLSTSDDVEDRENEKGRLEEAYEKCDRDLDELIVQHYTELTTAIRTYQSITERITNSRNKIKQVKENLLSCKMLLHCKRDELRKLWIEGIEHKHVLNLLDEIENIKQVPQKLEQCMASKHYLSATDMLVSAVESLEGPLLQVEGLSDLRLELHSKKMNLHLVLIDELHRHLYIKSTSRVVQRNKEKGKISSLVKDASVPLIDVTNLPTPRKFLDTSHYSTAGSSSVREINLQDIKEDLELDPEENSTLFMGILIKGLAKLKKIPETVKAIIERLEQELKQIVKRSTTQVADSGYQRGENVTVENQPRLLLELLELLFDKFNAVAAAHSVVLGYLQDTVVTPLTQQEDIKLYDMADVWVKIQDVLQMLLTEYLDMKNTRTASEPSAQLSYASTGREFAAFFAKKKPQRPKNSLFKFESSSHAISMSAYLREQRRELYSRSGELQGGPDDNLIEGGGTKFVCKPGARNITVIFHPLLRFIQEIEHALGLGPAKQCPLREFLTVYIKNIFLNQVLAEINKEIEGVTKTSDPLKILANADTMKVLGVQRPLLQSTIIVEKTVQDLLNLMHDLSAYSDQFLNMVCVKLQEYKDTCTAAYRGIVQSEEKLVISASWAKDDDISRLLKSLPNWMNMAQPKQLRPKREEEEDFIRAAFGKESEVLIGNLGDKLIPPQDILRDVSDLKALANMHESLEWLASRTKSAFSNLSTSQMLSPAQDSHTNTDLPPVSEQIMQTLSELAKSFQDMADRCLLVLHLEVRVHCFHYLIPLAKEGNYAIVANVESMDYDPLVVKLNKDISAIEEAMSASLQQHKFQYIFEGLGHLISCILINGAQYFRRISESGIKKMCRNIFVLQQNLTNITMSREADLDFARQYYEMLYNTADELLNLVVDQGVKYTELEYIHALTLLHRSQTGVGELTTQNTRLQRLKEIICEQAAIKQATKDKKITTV
UniProt Q9NV70: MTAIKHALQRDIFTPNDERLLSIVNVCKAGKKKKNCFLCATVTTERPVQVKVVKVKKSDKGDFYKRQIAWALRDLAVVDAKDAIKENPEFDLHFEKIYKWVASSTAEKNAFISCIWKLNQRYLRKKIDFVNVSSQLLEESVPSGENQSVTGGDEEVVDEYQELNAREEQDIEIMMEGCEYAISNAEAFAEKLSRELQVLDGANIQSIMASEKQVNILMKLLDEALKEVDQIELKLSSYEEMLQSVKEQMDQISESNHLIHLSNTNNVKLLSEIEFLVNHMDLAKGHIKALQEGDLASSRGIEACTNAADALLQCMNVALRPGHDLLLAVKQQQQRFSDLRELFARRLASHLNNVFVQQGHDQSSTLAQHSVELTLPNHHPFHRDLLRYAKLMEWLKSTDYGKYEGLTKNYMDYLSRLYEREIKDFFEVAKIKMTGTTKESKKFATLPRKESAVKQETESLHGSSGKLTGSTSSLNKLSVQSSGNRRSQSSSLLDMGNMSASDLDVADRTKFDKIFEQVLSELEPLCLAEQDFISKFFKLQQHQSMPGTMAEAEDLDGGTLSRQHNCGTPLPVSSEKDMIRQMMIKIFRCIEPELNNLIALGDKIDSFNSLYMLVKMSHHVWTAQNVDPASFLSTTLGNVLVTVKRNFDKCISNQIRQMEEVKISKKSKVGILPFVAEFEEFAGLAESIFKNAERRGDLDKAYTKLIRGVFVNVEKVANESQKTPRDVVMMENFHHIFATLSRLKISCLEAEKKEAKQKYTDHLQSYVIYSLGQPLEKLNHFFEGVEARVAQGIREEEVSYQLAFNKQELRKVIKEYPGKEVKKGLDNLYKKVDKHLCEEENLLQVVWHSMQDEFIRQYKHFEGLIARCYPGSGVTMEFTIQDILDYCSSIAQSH
UniProt O60645: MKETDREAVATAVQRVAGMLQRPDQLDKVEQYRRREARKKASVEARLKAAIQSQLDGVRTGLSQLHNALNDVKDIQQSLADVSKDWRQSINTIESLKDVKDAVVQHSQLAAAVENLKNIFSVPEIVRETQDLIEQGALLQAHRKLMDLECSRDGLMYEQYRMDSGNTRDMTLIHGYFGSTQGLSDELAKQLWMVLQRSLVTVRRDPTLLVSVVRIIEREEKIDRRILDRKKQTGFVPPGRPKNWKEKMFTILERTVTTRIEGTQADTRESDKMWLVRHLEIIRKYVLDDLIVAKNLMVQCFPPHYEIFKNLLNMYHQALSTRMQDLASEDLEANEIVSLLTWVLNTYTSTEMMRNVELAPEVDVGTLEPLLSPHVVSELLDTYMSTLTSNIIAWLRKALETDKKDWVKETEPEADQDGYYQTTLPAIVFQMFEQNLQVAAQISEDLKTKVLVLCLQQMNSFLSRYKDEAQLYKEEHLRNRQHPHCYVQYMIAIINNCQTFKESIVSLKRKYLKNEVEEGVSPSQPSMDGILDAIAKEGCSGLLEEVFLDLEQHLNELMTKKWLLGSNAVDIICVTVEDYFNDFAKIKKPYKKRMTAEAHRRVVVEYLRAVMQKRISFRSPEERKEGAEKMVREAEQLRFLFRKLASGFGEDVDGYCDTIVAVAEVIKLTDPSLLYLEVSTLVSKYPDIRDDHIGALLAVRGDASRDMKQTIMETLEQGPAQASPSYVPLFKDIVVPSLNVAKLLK

Assays:
[1] = biological target: GST-fusion of Exoc4ΔLoop (Exoc4 with T410-V492 deleted) (human) (UniProt Q96A65); experiment: pull-down
[2] = biological target: GST-fusion of Exoc4 (human) (UniProt Q96A65); experiment: pull-down

| Substance | binding [1] | binding [2] |
| --- | --- | --- |
| Exoc1 (single subunit coexpressed with the GST-fusions of Exoc4) (from UniProt Q9NV70 1-894) | binds | binds |
| Exoc3 (single subunit coexpressed with the GST-fusions of Exoc4) (from UniProt O60645 1-745) | binds | binds |
